Assay results as given in publication PMC12115182.
For at least one entry, the source does not settle the construct or the ends of the probe.

Amino acid sequences for entries named in this document (tags omitted). A change or cut given only in a name is not applied to a line headed by its entry.
UniProt P15927: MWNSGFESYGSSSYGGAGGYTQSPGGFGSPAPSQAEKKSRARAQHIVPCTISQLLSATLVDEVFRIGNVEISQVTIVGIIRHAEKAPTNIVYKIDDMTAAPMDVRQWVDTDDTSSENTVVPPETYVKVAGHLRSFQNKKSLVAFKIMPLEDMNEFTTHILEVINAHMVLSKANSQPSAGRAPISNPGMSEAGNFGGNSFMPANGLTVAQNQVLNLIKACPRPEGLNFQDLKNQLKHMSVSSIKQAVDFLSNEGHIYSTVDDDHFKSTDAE

Molecular target: huRPA32 (human RPA32) (human) (UniProt P15927)
Assay: EMSA
Settings: 10 uM huRPA32, 1% DMSO control, 40 mM Tris-HCl pH 7.5, 50 mM NaCl, 37 C, 60 min, 8% native PAGE in TBE, 100 V 1 h, recombinant protein, single-stranded DNA

For TTTTTTTTTTTTTTTTTTTTTTTTT [dT25], which IC50 (inhibition by S. purpurea leaf acetone extract Sp-L-A) is on record?
The IC50 was 236 µg/mL.

And the IC50 (inhibition by S. purpurea root acetone extract Sp-R-A)?
The IC50 was 13.6 µg/mL.

And the IC50 (inhibition by S. purpurea stem acetone extract Sp-S-A)?
Its IC50 is 43 µg/mL.
